Not every detail of the peptide structures is certain; ends, links or a residue may be inferred. Some entries share one result that the patent states for a list of compounds. Square brackets hold non-standard residues; d marks the D form. Peptide text beside a SMILES is read from it. * marks the point of attachment. DOTA = O=C(O)CN1CCN(CC(=O)O)CCN(CC(=O)*)CCN(CC(=O)O)CC1; DTPA = O=C(O)CN(CCN(CC(=O)O)CC(=O)O)CCN(CC(=O)O)CC(=O)*; CH2Cl = ClC*
Tests used:
[1] = test system: mural thrombus of aneurysm of the abdominal aorta; experiment: Abdominal aortic aneurysm in rats, SPECT and quantitative autoradiography of tracer uptake; format: in vivo, rat
[2] = test system: aneurysm thrombi from human AAA; experiment: Binding in excised human AAA samples, planar scintigraphy and autoradiography
[3] = test system: localized lesion / thrombus; format: in vivo, rat
Excerpt: we have used several experimental models of endovascular thrombus formation in rats, which have been already developed for molecular molecular imaging of platelet activation and fibrin formation, including aneurysm of the abdominal aorta {Sarda-Mantel, 2006}, endocarditic vegetations {Rouzet, 2008}. Aneurysm of the aorta was induced by matrix decellularized xenograft in rats {Allaire, 1996}, and endocarditis by left or right ventricle catheterization followed by provoked bacteraemia {Rouzet, 2008} as previously described. These thrombus models were completed by a model of stroke, provoked by cerebral autologous thrombus emboli in rats (reference). […]
Relevant tissues (heart, abdominal aorta, or brain according to the model) were carefully dissected, frozen and cut into transverse sections of 20 μm thickness, which were exposed in a digital radioimager (Instant Imager, Packard, Meriden, USA) for 12 hours. The activity normalized to the region of interest area (mean counts/min/mm^2 corrected for background activity) was determined on autoradiograms. Quantification was performed by calculating the ratio between the activity of the relevant tissue and the activity of a region of interest drawn on either normal myocardium remote from the vegetation in the endocarditis model, supra-renal aorta sample in the AAA model, or the contralateral brain hemisphere in the stroke model. […]

Sequences of proteins named here, by UniProt entry; tags and fusion partners are left off. Residues count along the entry.
UniProt P00747, 97-580 partner limits assumed: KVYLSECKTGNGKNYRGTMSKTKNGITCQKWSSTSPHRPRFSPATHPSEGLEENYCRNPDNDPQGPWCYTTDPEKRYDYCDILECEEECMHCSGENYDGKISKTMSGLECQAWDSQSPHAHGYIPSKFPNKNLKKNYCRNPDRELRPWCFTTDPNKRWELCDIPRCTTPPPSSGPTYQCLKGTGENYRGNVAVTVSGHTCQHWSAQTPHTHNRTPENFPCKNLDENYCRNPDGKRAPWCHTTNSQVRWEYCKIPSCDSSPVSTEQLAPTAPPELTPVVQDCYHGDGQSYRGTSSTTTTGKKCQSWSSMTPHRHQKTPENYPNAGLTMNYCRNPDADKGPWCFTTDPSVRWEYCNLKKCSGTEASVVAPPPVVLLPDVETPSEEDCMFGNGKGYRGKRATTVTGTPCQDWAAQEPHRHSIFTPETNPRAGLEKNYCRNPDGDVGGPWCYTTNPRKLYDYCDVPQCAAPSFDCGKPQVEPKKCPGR
UniProt P00747, 581-810 limits assumed: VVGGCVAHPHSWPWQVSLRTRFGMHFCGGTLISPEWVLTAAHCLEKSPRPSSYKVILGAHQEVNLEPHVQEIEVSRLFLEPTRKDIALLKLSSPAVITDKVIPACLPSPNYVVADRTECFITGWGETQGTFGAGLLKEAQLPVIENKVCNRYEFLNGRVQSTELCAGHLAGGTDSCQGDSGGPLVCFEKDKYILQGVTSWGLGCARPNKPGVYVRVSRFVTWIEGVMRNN

[4] = biological target: T1, plasmin from human plasma (Homo sapiens, UniProt P00747); experiment: Determination of plasmin activity with fluorescent substrate Suc-Ala-Phe-Lys-AMC; format: biochemical; details: for concentration from which the dose-dependent inhibition of plasmin activity is significant: paired t-test vs control, p<0.05
T1 construct: plasmin from human plasma (calbiochem); purchased calbiochem; host or cells: human plasma
Method: Plasmin with or without inhibitors was incubated at room temperature for 15 min. The fluorescent substrate (40 μM) was added just before reading (λ excitation 390 nm, λ emission 460 nm)
10 nM of plasmin from human plasma (calbiochem) was diluted in Tris-HCl buffer pH 7.4 50 mM, NaCl 100 mM and Tween-20 0.01%. The samples were then incubated or not with the different inhibitors (see below) for 15 minutes at room temperature. Then, the fluorescent substrate (Suc-Ala-Phe-Lys-AMC, […]) was added just before reading (λ excitation 390 nm, λ emission 460 nm) on the Fluoroskan Ascent plate reader (Thermo Fisher). The fluorescence intensity was evaluated every 10 minutes for 2 hours at 37° C.—The integration time for each measure was 20 ms.
Each inhibitor was tested in a range of concentrations from 5 nM up to 1000 nM. All the inhibitors were tested in duplicates for each concentration and 4 independent experiments were performed.
Results are presented as % of active plasmin. The differences between the concentrations of each inhibitor were evaluated by paired t-test using StatView software. Statistical significance was accepted when p<0.05.

CC(C)[C@@H](NC(=O)CNC(=O)CN(CCN(CCN(CC(=O)O)CC(=O)O)CC(=O)O)CC(=O)O)C(=O)N[C@@H](Cc1ccccc1)C(=O)N[C@@H](CCCCN)C(=O)CCl [99mTc-DTPA-G-dVFKcmk, metal not drawn] ({DTPA}-G[dV]FK-CH2Cl)
Autoradiography, uptake ratio of aneurysm to supra-renal aorta ([1]; AAA model in rats, 99mTc-labelled tracers, n = 10): 7.57 ± 3.32
intensity of the uptake quantified by autoradiography ([1]; AAA model in rats, pre-injection of 20 nmoles non-labelled DTPA-G-dVFKcmk 10 minutes before 2 nmoles tracer, 2 animals): 1.34±0.30 cpm/mm^2
decrease of the intensity of the uptake after pre-injection of the non-labelled compound ([1]; AAA model in rats, vs animals without pre-injection): fivefold
intensity of the uptake quantified by autoradiography ([1]; AAA model in rats, without pre-injection of the non-labelled compound): 7.57±3.32 cpm/mm^2
rats in which the AAA was detectable on SPECT ([1]; in vivo, 2 hours after radiotracer injection): n/N
increase of the activity vs 99mTc-Aprotinin as control ([2]; human AAA samples incubated 30 min at room temperature): twofold
uptake by thrombus layer on autoradiography vs 99mTc-Aprotinin ([2]; luminal, intermediate and abluminal layers): greater uptake both at the luminal and abluminal layers of the thrombus, but also within the intermediate layer
decrease of the overall uptake ([2]; thrombus slice pre-incubated with DOTA-G-dVFA-cmk 0.05 mg/ml): about 25%
localization of uptake on histology ([3]; whatever the model): co-localized with the thrombus
signal by in vivo SPECT and by autoradiographies ([3]; whatever the model used): detectable signal related to the localized lesion

CC(C)[C@@H](NC(=O)CNC(=O)CN1CCN(CC(=O)O)CCN(CC(=O)O)CCN(CC(=O)O)CC1)C(=O)N[C@@H](Cc1ccccc1)C(=O)N[C@@H](CCCCN)C(=O)CCl [PL 701, DOTA-G-dV-F—K-cmk] ({DOTA}-G[dV]FK-CH2Cl)
concentration from which the dose-dependent inhibition of plasmin activity is significant [4]: ≥ 50 nM

CC(C)[C@@H](NC(=O)CNC(=O)CN1CCN(CC(=O)O)CCN(CC(=O)O)CCN(CC(=O)O)CC1)C(=O)N[C@@H](Cc1ccccc1)C(=O)N[C@@H](C)C(=O)CCl [PL 703, DOTA-G-dV-F-A-cmk] ({DOTA}-G[dV]FA-CH2Cl)
inhibitory effect on plasmin activity (in words) ([4]; range 5 nM to 1000 nM): not significant until 1000 nM

CC(C)[C@@H](NC(=O)CNC(=O)CN(CCN(CCN(CC(=O)O)CC(=O)O)CC(=O)O)CC(=O)O)C(=O)N[C@@H](Cc1ccccc1)C(=O)N[C@@H](CCCCN)C(=O)CCl [PL 704, DTPA-G-dV-F—K-cmk] ({DTPA}-G[dV]FK-CH2Cl)
concentration from which the dose-dependent inhibition of plasmin activity is significant [4]: ≥ 5 nM

D-Val-Phe-Lys-COCH2Cl [VFK, reference compound]
concentration from which the dose-dependent inhibition of plasmin activity is significant [4]: ≥ 5 nM

G-dV-F—K-cmk [PL 700]
concentration from which the dose-dependent inhibition of plasmin activity is significant [4]: ≥ 5 nM

Source: patent US9272054B2, “Agents for the molecular imaging of serine-protease in human pathologies” (Institut National de la Sante et de la Recherche Medicale …, priority 2010, dated 2016)
